Consider three molecules from paper PMC12709416.

Results are given in words; binding and its absence hold for the method and conditions named. Binding seen in cells or lysates may run through a third protein. Some entries that bind do so weakly or less than the wild type. Sequences can lack the tags named with a protein.

Assay [1] deals with T1, MBP-tagged MUT-8 N-terminal fragment (1–235) (C. elegans) (UniProt Q19672).
T1 sequence: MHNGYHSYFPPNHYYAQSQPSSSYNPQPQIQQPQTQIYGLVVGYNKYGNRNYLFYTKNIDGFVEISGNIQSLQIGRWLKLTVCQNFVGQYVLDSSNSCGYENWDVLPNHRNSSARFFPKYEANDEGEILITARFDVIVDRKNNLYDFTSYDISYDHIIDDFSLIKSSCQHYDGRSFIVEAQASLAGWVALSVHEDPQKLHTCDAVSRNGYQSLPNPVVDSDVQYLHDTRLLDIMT
The experiment in a line: pull-down; MBP pull-down: supernatant of E. coli co-expressing MBP-MUT-8 (1–235) and GST-MUT-16 (584–724) on amylose resin, 1–2 h at 4°C; lysis buffer 50 mM NaH2PO4, 20 mM Tris-HCl, 250 mM NaCl, 10 mM imidazole, 10% glycerol, 0.05% IGEPAL, 5 mM 2-mercaptoethanol, pH 7.5; eluted with 10 mM maltose; SDS-PAGE, Coomassie.

In assay [2] the target is T2, GST-tagged MUT-16 fragment (584–724), seven Arg mutated to Lys (R−K) (C. elegans) (UniProt O62011).
T2 sequence: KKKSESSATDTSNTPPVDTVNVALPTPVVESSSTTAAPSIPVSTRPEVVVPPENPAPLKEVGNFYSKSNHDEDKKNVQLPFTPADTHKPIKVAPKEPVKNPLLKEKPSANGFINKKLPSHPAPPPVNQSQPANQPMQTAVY
The experiment in a line: pull-down; GST pull-down: supernatant of E. coli co-expressing MBP-MUT-8 (1–235) and GST-MUT-16 (584–724) on glutathione resin, 1–2 h at 4°C; lysis buffer 50 mM NaH2PO4, 20 mM Tris-HCl, 250 mM NaCl, 10 mM imidazole, 10% glycerol, 0.05% IGEPAL, 5 mM 2-mercaptoethanol, pH 7.5; eluted with 20 mM reduced glutathione; SDS-PAGE, Coomassie.

Assay [3] deals with T3, GST-tagged MUT-16 fragment (584–724), WT (C. elegans) (UniProt O62011).
T3 sequence: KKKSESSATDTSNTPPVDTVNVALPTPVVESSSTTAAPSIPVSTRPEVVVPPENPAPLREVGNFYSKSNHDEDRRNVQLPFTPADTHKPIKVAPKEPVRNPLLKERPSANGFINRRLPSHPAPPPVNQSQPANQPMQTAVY
Described as above.

B1: GST-tagged MUT-16 fragment (584–724), WT (domain or fragment, UniProt O62011 584-724)
chain: KKKSESSATDTSNTPPVDTVNVALPTPVVESSSTTAAPSIPVSTRPEVVVPPENPAPLREVGNFYSKSNHDEDRRNVQLPFTPADTHKPIKVAPKEPVRNPLLKERPSANGFINRRLPSHPAPPPVNQSQPANQPMQTAVY
For B1, in assay [1], the binding entry is “binds”.

B2: GST-tagged MUT-16 fragment (584–724), seven Arg mutated to Lys (R−K) (domain or fragment, UniProt O62011 584-724)
chain: KKKSESSATDTSNTPPVDTVNVALPTPVVESSSTTAAPSIPVSTRPEVVVPPENPAPLKEVGNFYSKSNHDEDKKNVQLPFTPADTHKPIKVAPKEPVKNPLLKEKPSANGFINKKLPSHPAPPPVNQSQPANQPMQTAVY
B2: in assay [1], the binding result is given as “binds”.

B3: MBP-tagged MUT-8 N-terminal fragment (1–235) (domain or fragment, UniProt Q19672 1-235)
chain: MHNGYHSYFPPNHYYAQSQPSSSYNPQPQIQQPQTQIYGLVVGYNKYGNRNYLFYTKNIDGFVEISGNIQSLQIGRWLKLTVCQNFVGQYVLDSSNSCGYENWDVLPNHRNSSARFFPKYEANDEGEILITARFDVIVDRKNNLYDFTSYDISYDHIIDDFSLIKSSCQHYDGRSFIVEAQASLAGWVALSVHEDPQKLHTCDAVSRNGYQSLPNPVVDSDVQYLHDTRLLDIMT
Take B3: the binding result in assay [2] and in assay [3] was “binds” throughout.
